The whole screen tested about 320,000 compounds, of which about 22,000 (6.9%) were called active. Inconclusive means that the source gave no clear call. Such entries were picked first, then a sample of the others. The call rests on the fitted dose curve; in most records, active means well fitted inhibition curve with a large enough effect; inconclusive means small, poorly fitted or top-dose-only effect, or another doubt; inactive means no such curve, though single readings can be large or run the other way. Potencies beside an inconclusive call are fits to weak or partial responses and may not hold up.
Assay: Primary qHTS for delayed death inhibitors of the malarial parasite plastid, 96 hour incubation
Settings: P. falciparum luciferase reporter growth; series mostly up to 28.7 µM; activity change, negative = inhibition: at the top concentration
Method in brief: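 Infected RBCs, 2% Hct / 0.05% parasitemia final; luciferase-reporter P. falciparum; cpd 96 h, 37 C, 5% CO2; luciferase detection reagent; luminescence.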
On the % scale 0 is the no-effect control and ±100 the full control effect; potency means the concentration at half of the fitted maximal effect.

| Compound | activity change, negative = inhibition | Potency |
| --- | --- | --- |
| O=C(N/N=C/c1ccccn1)c1[nH]c2ccc([N+](=O)[O-])cc2c1-c1ccccc1 | inactive: -5.97% |  |
| COC(=O)c1ccc(-c2noc(CN(C)Cc3ccncc3C)n2)cc1 | inactive: 23.3% |  |
| Cc1ccc(P(=Nc2ccccc2)(N2CCOCC2)N2CCOCC2)o1 |  | inconclusive: 9.28 µM [inhibitor, partial curve] |
| COc1ccc(CCN2C(=O)c3cccc4cccc(c34)C2=O)cc1OC |  | inconclusive: 0.415 µM [inhibitor, partial curve, poor fit] |
| CN(C)S(=O)(=O)N1CCN(c2ccc([N+](=O)[O-])c(N3CCCCC3)c2)CC1 |  | inconclusive: 18.5 µM [inhibitor, single point] |
| Cc1cc(C)cc(N(C(=O)c2sc(C)nc2C)C(C(=O)NCc2ccco2)c2ccccc2)c1 (configuration not stated) |  | active: 11.7 µM |
| COc1cc(S(=O)(=O)N(CCc2ccccc2)Cc2cccs2)ccc1-n1cnnn1 |  | inconclusive: 18.5 µM [inhibitor, single point] |
| CCCOc1ccc(C2C(=O)N(C3CCCCC3)CC(=O)N2C2CC2)cc1OC (configuration not stated) |  | inconclusive: 13.1 µM [inhibitor, single point] |
| COc1ccc(C=O)cc1COc1ccc(Cl)cc1[N+](=O)[O-] | inactive: -0.993% |  |
| CC(=O)COC(=O)c1cccc(N2C(=O)C3C4C=CC(C4)C3C2=O)c1 (configuration not stated) |  | active: 13.1 µM |
| CN(CC(=O)NCc1ccco1)CC(=O)Nc1c(Cl)cccc1Cl | inactive: -10.8% |  |
| O=C(O)c1ccccc1Nc1ccnc(C(F)(F)F)c1 | inactive: 22.8% |  |
| O=C1CN(C(=O)CNCc2ccc(Cl)cc2)c2ccccc2N1 |  | inconclusive: 13.1 µM [inhibitor, partial curve] |
| O=C(c1cc(-c2cccc(Cl)c2)on1)N1CCN(c2ccc(F)cc2)CC1 |  | inconclusive: 18.5 µM [inhibitor, single point] |
| CCOc1ccccc1NC(=O)CN(C)S(=O)(=O)c1cccc2nsnc12 |  | inconclusive: 4.15 µM [inhibitor, full curve, poor fit] |
| Cc1ccc(-c2nnn(CC(=O)N(c3ccc(F)cc3)C(C(=O)NC3CCCC3)c3ccncc3)n2)o1 (configuration not stated) |  | inconclusive: 10.4 µM [inhibitor, partial curve, poor fit] |
| CC(C)(C)C(=O)Nc1ccc(N=Nc2ccccc2)cc1 | inactive: 56.5% |  |
| Cc1c(C(=O)N2CCC3(CC2)OCCO3)sc2ncnc(N3CCN(c4ccccn4)CC3)c12 |  | active: 11.7 µM |
| CSc1nnc2c3c4c(sc3nc(-n3nc(C)cc3C)n12)COC(C)(C)C4 |  | inconclusive: 14.7 µM [inhibitor, single point] |
| COCCn1cnc2c1c(=O)n(CC(=O)Nc1cc(C)on1)c(=O)n2Cc1ccccc1 |  | inconclusive: 0.828 µM [inhibitor, partial curve] |
| O=C(Nc1ccc(N2CCOCC2)cc1)Nc1ccc(Cl)c(Cl)c1 |  | inconclusive: 4.15 µM [inhibitor, partial curve, poor fit] |
| Cc1ccc(C2C(C=Nc3c(C)n(C)n(-c4ccccc4)c3=O)=C(c3ccccc3)Oc3ccccc32)cc1 (configuration not stated) |  | active: 4.15 µM |
| COc1ccc(/C=N/NC(=O)c2[nH]nc3c2CCc2ccccc2-3)cc1OC |  | inconclusive: 1.47 µM [inhibitor, partial curve] |

| Compound | activity change, negative = inhibition | Potency |
| --- | --- | --- |
| CC(C)=C(NC(=O)c1ccccc1)C(=O)N/N=C/c1ccc(O)cc1 |  | inconclusive: 10.4 µM [inhibitor, single point] |
| CC(C)OC(=O)c1cc(NC(=O)C2C3C=CC(O3)C2C(=O)O)cc(C(=O)OC(C)C)c1 (configuration not stated) | inactive: 19.9% |  |
| Cc1ccccc1CN1[C@@H](CC2CCCCC2)COCCS1(=O)=O | inactive: 0.379% |  |
| COCCN1CCC(CNCc2c(C(=O)N3CCCCC3)nc3c(C)cccn23)C1 (configuration not stated) |  | inconclusive: 11.7 µM [inhibitor, single point] |
| COc1cc(CN(C)CC(=O)c2[nH]c(C)c(C(C)=O)c2C)ccc1OC(F)F |  | inconclusive: 18.5 µM [inhibitor, single point] |
| COc1ccccc1N1CCN(C(=O)c2cccs2)CC1 |  | inconclusive: 1.04 µM [inhibitor, partial curve, poor fit] |
| COc1cccc(NC(=O)c2cc3c(=O)n4ccccc4nc3n(CC(C)C)c2=N)c1 |  | inconclusive: 2.94 µM [inhibitor, full curve, poor fit] |
| CC(C)(C)N1CSC(=S)N(Cc2ccccc2)C1 |  | inconclusive: 16.5 µM [inhibitor, single point] |
| CC(C)c1c(C(=O)N/N=C/c2ccc(Cl)cc2Cl)nnn1-c1nonc1N |  | inconclusive: 13.1 µM [inhibitor, single point] |
| CNCC/C=C1/c2ccccc2CSc2ccccc21 |  | inconclusive: 13.1 µM [inhibitor, single point] |
| COc1ccc(/C(C)=N/Nc2ncc(Cl)cc2Cl)c(O)c1 |  | inconclusive: 18.5 µM [inhibitor, single point] |
| COc1ccc(N2CCN(C(=O)c3cc4c(-c5ccc(Cl)cc5)nn(C)c4s3)CC2)cc1 |  | inconclusive: 10.4 µM [inhibitor, single point] |
| O=C(COc1ccc([N+](=O)[O-])cc1)Nc1ccc(S(=O)(=O)N2CCOCC2)cc1 |  | inconclusive: 6.57 µM [inhibitor, partial curve, poor fit] |
| O=c1/c(=C\c2ccc(O)cc2)sc2n1C(c1ccccc1)C(c1ccccc1)=NN=2 (configuration not stated) |  | inconclusive: 0.522 µM [inhibitor, full curve] |
| COc1ccc(-c2nsc3c(SCc4ccccc4)ncnc23)cc1 |  | active: 1.85 µM |
| Cc1cc(/C=C2/NC(=O)N(Cc3ccccc3F)C2=O)c(C)n1C |  | active: 10.4 µM |
| CC(C)NC(=O)Cn1cc(C(=O)C2CC2)c2ccccc21 |  | inconclusive: 5.22 µM [inhibitor, partial curve, poor fit] |
| O=C(N/N=C/c1ccccn1)c1cccnc1 |  | inconclusive: 0.104 µM [inhibitor, full curve, poor fit] |
| COc1ccc(NCc2nnc(SCC(=O)c3ccc(C)cc3)o2)cc1 |  | inconclusive: 18.5 µM [inhibitor, single point] |
| Cc1ccc(C)c(CN2CCC(CNC(=O)CCc3nnc4ccc(N5CCC(C)CC5)nn34)CC2)c1 |  | inconclusive: 18.5 µM [inhibitor, single point] |
| COc1cccc(OC)c1C(=O)Nc1ccc(C(=O)NCc2ccccc2)cc1 |  | inconclusive: 18.5 µM [inhibitor, single point] |
| O=C(COc1ccc(Oc2ccccc2)cc1)NCc1cn2ccccc2n1 |  | inconclusive: 10.4 µM [inhibitor, single point] |
| O=C(CN1CCN(c2ccccc2F)CC1)NC(=O)NCc1ccco1 |  | inconclusive: 5.86 µM [inhibitor, partial curve, poor fit] |

Structural class, those above with a tert-butyl group.

| Compound | activity change, negative = inhibition | Potency |
| --- | --- | --- |
| CC(C)(C)C(=O)Nc1ccc(N=Nc2ccccc2)cc1 | inactive: 56.5% |  |
| CC(C)(C)N1CSC(=S)N(Cc2ccccc2)C1 |  | inconclusive: 16.5 µM [inhibitor, single point] |

Additional records:

| Compound | activity change, negative = inhibition | Potency |
| --- | --- | --- |
| COc1cccc2cc(CC(=O)c3ccccc3)c(=O)oc12 | inactive: 5.58% |  |
| Cc1ccc(-c2cc(C(=O)Nc3ccccc3C)c3ccccc3n2)o1 |  | inconclusive: 18.5 µM [inhibitor, single point] |
| CC(=O)NCCc1nc2cc(NS(=O)(=O)c3ccccc3)ccc2n1C | inactive: 12.4% |  |
| COc1cccc(NS(=O)(=O)c2ccc(-n3cccn3)cc2)c1 | inactive: -20.3% |  |
| CC(C)C(=O)NC(=S)NCC(=O)c1ccccc1 |  | inconclusive: 0.0329 µM [inhibitor, full curve, poor fit] |
| CC(=O)OC1C2CCC1C([N+]1(C)CCCCC1)CC2 (configuration not stated) |  | inconclusive: 0.294 µM [inhibitor, partial curve, poor fit] |
| COc1ccc(CNC(=O)c2ccc3nccnc3c2)cc1 |  | inconclusive: 6.57 µM [inhibitor, partial curve] |
| Cc1ccc(-c2cc(-c3ccccc3O)nc(N/N=C/c3cccnc3)n2)cc1 |  | active: 0.0294 µM |
| CCOc1cc(/C=N/O)ccc1OCc1ccc([N+](=O)[O-])cc1 | inactive: 9.01% |  |
| COc1ccc(OC)c(NC(=O)CCNS(=O)(=O)c2ccc3c(c2)oc(=O)n3C)c1 |  | inconclusive: 18.5 µM [inhibitor, partial curve, poor fit] |
| COc1cccc(CNC(=O)c2nnn(CC(=O)Nc3cc(C)ccc3C)c2N)c1 |  | active: 11.7 µM |
| O=c1[nH]n2c(=O)c3c([nH]c2c1N=Nc1cccc(Cl)c1)CCCC3 |  | inconclusive: 4.65 µM [inhibitor, partial curve, poor fit] |
| COc1ccc(/C=C(/NC(=O)c2ccc(C)cc2)C(=O)N2CCCC2)cc1OC | inactive: -20.5% |  |
| Cc1ccc(NC(=S)Nc2ccc(OC(F)F)c(Cl)c2)cc1Cl |  | inconclusive: 18.5 µM [inhibitor, single point] |
| COc1ccc(C2C3=C(CCCC3=O)Nc3nc(-c4cc(OC)c(OC)c(OC)c4)nn32)cc1OC (configuration not stated) |  | inconclusive: 10.4 µM [inhibitor, single point] |
| CCCn1c(SCC(=O)N2CCCCC2)nnc1-c1ccccn1 |  | inconclusive: 1.47 µM [inhibitor, full curve] |
| CCCC(c1nnnn1Cc1ccc(F)cc1)N1CCN(CC)CC1 (configuration not stated) |  | inconclusive: 4.65 µM [inhibitor, partial curve] |
| O=C(Cn1cnc([N+](=O)[O-])c1)NCCc1ccccc1 |  | inconclusive: 18.5 µM [inhibitor, single point] |
| Oc1ccc(C2=NNC(c3ccc(O)cc3)=NN2)cc1 |  | inconclusive: 13.1 µM [inhibitor, single point] |
| COc1ccc(C(=O)NC(=S)Nc2ccc(S(N)(=O)=O)cc2)cc1 |  | inconclusive: 18.5 µM [inhibitor, single point] |
| CCN(CC)S(=O)(=O)c1cc(C(=O)c2nccn2C)ccc1Cl |  | inconclusive: 4.15 µM [inhibitor, single point] |
